# Data reported in the supplement of paper PMC6411743.
# The chains behind the UniProt entries cited, without tags or fusion partners. Where a name states a change or a piece, a line headed by the entry shows the natural chain unless it says otherwise.
# UniProt O43903, whole entry: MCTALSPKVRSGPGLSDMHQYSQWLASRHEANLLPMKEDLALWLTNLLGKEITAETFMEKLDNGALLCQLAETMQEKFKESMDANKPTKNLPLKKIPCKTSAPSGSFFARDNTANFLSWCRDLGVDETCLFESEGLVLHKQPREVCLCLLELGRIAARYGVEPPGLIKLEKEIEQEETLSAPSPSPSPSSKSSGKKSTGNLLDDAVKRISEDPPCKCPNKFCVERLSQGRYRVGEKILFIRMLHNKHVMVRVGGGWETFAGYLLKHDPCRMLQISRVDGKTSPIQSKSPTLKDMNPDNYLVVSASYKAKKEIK
# UniProt Q14534: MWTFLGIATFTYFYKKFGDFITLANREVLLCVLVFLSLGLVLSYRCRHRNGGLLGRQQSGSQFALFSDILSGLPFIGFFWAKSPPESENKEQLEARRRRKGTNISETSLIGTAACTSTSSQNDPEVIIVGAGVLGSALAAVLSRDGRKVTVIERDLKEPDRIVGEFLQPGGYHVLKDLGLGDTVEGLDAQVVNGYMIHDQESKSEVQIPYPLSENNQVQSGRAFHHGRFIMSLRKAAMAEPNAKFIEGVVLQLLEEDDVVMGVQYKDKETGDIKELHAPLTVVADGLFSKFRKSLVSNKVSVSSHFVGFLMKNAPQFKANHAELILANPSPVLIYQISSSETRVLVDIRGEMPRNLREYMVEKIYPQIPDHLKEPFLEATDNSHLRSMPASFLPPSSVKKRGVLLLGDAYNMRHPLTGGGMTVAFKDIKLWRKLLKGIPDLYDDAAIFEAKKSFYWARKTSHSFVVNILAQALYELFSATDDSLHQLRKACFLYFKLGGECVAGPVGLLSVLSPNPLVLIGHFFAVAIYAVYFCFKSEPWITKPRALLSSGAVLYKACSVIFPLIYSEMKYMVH
# UniProt P17987, whole entry: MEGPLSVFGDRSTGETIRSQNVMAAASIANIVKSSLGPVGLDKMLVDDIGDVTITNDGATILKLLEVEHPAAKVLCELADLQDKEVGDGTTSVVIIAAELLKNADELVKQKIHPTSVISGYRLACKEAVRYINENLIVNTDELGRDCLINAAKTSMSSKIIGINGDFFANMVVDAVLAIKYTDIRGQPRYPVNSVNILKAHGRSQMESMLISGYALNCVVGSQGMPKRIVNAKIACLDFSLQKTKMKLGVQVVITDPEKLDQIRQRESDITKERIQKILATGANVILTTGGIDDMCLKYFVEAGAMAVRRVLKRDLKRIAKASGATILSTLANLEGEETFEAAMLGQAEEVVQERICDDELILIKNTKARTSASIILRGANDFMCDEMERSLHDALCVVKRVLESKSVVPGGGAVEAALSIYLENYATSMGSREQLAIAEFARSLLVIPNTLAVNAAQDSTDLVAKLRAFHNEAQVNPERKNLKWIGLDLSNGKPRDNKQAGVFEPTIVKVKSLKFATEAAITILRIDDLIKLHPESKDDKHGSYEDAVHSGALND
# UniProt P63104: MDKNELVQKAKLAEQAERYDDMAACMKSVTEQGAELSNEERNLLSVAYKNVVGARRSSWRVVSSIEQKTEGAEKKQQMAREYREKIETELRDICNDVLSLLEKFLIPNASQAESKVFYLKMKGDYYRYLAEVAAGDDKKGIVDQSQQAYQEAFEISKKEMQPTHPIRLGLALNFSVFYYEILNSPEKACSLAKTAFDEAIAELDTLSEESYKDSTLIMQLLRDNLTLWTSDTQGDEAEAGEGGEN
# ± gives the standard deviation of the averaged measurements. This is one part of the list.
# Compound: Nc1nc2c(ncn2[C@@H]2O[C@H](COP(=O)(O)OP(=O)(O)OP(=O)(O)O)[C@@H](O)[C@H]2O)c(=O)[nH]1 [guanosine triphosphate]
# Assay: NP40-soluble protein abundance relative to vehicle (solubility fold change) (ratio); higher = more soluble protein in presence of GTP
# Method: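 Solubility proteome profiling in Jurkat crude lysate. Lysate was treated with Mg-GTP (0.1-10 mM) for 10 min at room temperature and 3 min at 37 °C, then solubilised with 0.8% NP40 and benzonase, followed by ultracentrifugation. Proteins were quantified by TMT10 LC-MS/MS; the value is the NP40-soluble abundance relative to the NP40-processed vehicle, from 3 independent experiments.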
Target,NP40-soluble protein abundance (concentration: 0.1mM),NP40-soluble protein abundance (concentration: 0.5mM),NP40-soluble protein abundance (concentration: 1mM),NP40-soluble protein abundance (concentration: 2mM),NP40-soluble protein abundance (concentration: 4mM),NP40-soluble protein abundance (concentration: 6mM),NP40-soluble protein abundance (concentration: 8mM),NP40-soluble protein abundance (concentration: 10mM)
E9PRR5 and related entries (UniProt O43903),0.956 ± 0.014,0.957 ± 0.042,0.94 ± 0.02,0.903 ± 0.074,0.894 ± 0.05,0.911 ± 0.057,0.944 ± 0.069,0.963 ± 0.071
E7EVQ6 and related entries (UniProt Q14534),1.14 ± 0.16,1.15 ± 0.12,1.03 ± 0.034,1.1 ± 0.12,1.05 ± 0.062,0.973 ± 0.053,1.02 ± 0.2,0.983 ± 0.15
F5H136 and related entries (UniProt P17987),0.988 ± 0.02,1.07 ± 0.086,1.08 ± 0.12,1.11 ± 0.18,1.09 ± 0.2,1.1 ± 0.21,1.06 ± 0.19,1.02 ± 0.2
G3V5T9 and related entries (UniProt P24941),0.984 ± 0.03,0.987 ± 0.055,0.946 ± 0.01,0.941 ± 0.021,0.922 ± 0.029,0.939 ± 0.037,0.884 ± 0.049,0.884 ± 0.073
E7EVZ2 and related entries (UniProt P63104),0.783 ± 0.072,0.766 ± 0.03,0.93 ± 0.12,0.916 ± 0.023,0.882 ± 0.042,0.913 ± 0.029,0.851 ± 0.098,1 ± 0.11
